{"source": "paper PMC8341399", "about": "“A STING-based fluorescent polarization assay for monitoring activities of cyclic dinucleotide metabolizing enzymes” (RSC Chemical Biology, 2020)", "system": "hENPP1", "assay": "ENPP1 cGAMP hydrolysis tracking, HPLC analysis", "assay_type": "biochemical, human", "details": "ENPP1 9.16 nM, 50 μM cGAMP, 30 min", "note": "A number of entries come with more than one value. This is not the full list of results. An entry can have further records. Values given together differ, and nothing given here explains why; they may come from other doses, times, organisms or constructs than stated.", "data": [{"smiles": "Nc1nc2c(ncn2[C@@H]2O[C@@H]3COP(=O)(O)O[C@H]4[C@@H](O)[C@H](n5cnc6c(N)ncnc65)O[C@@H]4COP(=O)(O)O[C@@H]2[C@@H]3O)c(=O)[nH]1", "note": "[cGAMP, 2′3-cGAMP]", "values": [{"measurement": "cGAMP percent cleavage HPLC", "value": "over 70% and 72%"}]}]}
